Test results from publication doi:10.1101/2021.12.09.472000.
Results are given in words; binding and its absence hold for the method and conditions named. In cells and extracts the contact can be indirect. Some results given as binding are weak or reduced against the parent protein; the word gives no strength.

Columns and labels:
Experiment in all cases: FRET or BRET
[1] = molecular target: D48N variant human 5-HT2A receptor with C-terminal RLuc8 (human) (UniProt P28223)
[2] = molecular target: T25N variant human 5-HT2A receptor with C-terminal RLuc8 (human) (UniProt P28223)
[3] = molecular target: H452Y variant human 5-HT2A receptor with C-terminal RLuc8 (human) (UniProt P28223)
[4] = molecular target: A230T variant human 5-HT2A receptor with C-terminal RLuc8 (human) (UniProt P28223)
[5] = molecular target: I197V variant human 5-HT2A receptor with C-terminal RLuc8 (human) (UniProt P28223)
[6] = molecular target: human 5-HT2A serotonin receptor, wild type, with C-terminal Renilla luciferase (RLuc8) (human) (UniProt P28223)
[7] = molecular target: A447V variant human 5-HT2A receptor with C-terminal RLuc8 (human) (UniProt P28223)
[8] = molecular target: S12N variant human 5-HT2A receptor with C-terminal RLuc8 (human) (UniProt P28223)

Measured: binding

Venus-tagged N-terminal β-arrestin1 (from UniProt P49407 1-418)
binds: all assays above
